This assay addresses T1, MRP pump (Homo sapiens, UniProt P33527).
T1 construct: inside-out plasma membrane vesicles prepared from HL60ADR cells; endogenous in cells; host or cells: HL60ADR cells (plasma membrane vesicles)
The experiment in a line: ATP-dependent transport of [3H]LTC4 into inside-out plasma membrane vesicles from HL60ADR cells. It counts as biochemical. The note with it: 2.2 mM. Here is the method: To determine if the NSAIDs were acting directly on the MRP pump the uptake of [^3H]LTC4 into inside-out plasma membrane vesicles prepared from HL60ADR cells was examined using a rapid filtration procedure (Ishikawa,T., et al. (1994); J. Biol. Chem. 269 (46); 29085-29093). ATP-dependent transport of [^3H]LTC4 into the membrane vesicles was measured by a rapid filtration method using a Millipore sampling manifold. The membrane vesicles were thawed at 37° C. before use and kept on ice. The reaction components consisted of 0.25 M sucrose/10 mM Tris.HCl pH 7.4/1 mM ATP/10 mM MgCl2/10 mM creatine phosphate/ 110 μg/ml creatine kinase and 10 nM [^3H]LTC4, with 50 μg of the inside-out vesicle preparation, in a final volume of 110 μl. This suspension was incubated at 37° C., with gentle mixing, and aliquots, 20 μl, were taken at the indicated points. Those aliquots were diluted in 1 ml of ice-cold incubation buffer before being applied to 0.22 μm Millipore GSWP nitrocellulose filters, pre-soaked in ice-cold incubation buffer, under suction. The filters were subsequently washed with 3 ml ice-cold incubation buffer, and absorbed radioactivity was measured using a scintillation counter (Beckman). In control experiments ATP was replaced with 5μ-AMP to determine the ATP-dependent transport.

Sequences of proteins named here, by UniProt entry; tags and fusion partners are left off. A change or cut given only in a name is not applied to a line headed by its entry.
UniProt P33527: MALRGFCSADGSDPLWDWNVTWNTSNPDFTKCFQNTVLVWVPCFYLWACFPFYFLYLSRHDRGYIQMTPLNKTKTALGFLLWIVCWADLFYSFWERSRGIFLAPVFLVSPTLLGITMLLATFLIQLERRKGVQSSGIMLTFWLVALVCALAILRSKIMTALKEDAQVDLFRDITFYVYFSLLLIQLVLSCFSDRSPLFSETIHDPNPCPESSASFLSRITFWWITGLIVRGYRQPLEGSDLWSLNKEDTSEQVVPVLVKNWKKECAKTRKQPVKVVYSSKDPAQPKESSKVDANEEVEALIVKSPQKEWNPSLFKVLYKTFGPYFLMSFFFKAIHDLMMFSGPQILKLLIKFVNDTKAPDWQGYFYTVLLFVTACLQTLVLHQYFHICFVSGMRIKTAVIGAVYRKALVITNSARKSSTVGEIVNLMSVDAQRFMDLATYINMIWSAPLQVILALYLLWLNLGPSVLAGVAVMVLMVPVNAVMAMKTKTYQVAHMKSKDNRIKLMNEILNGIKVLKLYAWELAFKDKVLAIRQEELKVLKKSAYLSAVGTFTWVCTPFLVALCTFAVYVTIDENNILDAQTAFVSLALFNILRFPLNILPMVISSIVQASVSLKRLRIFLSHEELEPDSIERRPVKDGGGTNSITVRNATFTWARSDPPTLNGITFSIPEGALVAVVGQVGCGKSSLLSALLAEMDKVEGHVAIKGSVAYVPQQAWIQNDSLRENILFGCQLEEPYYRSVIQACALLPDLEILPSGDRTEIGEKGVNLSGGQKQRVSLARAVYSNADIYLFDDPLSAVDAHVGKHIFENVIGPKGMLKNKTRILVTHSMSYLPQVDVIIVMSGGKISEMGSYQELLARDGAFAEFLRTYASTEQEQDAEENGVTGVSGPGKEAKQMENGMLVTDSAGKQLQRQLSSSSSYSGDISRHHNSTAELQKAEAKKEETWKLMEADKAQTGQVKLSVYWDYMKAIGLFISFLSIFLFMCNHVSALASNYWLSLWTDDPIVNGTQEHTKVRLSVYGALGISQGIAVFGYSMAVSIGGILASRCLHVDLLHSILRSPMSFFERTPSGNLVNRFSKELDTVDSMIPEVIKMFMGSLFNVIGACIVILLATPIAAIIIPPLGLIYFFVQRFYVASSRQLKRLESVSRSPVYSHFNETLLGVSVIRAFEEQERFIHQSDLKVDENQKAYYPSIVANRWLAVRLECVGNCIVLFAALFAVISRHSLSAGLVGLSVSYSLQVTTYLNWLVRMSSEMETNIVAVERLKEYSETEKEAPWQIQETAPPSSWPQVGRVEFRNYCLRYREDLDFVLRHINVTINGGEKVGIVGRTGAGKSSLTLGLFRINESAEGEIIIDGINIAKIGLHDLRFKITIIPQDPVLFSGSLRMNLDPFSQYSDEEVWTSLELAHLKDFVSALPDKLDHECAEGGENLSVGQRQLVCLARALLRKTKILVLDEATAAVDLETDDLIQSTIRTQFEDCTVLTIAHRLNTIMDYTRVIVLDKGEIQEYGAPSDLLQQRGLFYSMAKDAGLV

The text below walks through data of patent publication US6413937B1, “Combinations for use in increasing the potency of a substrate for multidrug resistance related protein” (Dublin City University and Enterprise Ireland, priority 1996, dated 2002).

The molecule `COc1ccc2cc([C@H](C)C(=O)O)ccc2c1` [Naproxen] yielded an inhibition at 2200 µM of 15.5%.

As usually defined, the inhibition is the drop in the measured response relative to a control, in per cent.
